± gives the standard deviation of the averaged measurements. This is one part of the list.
Compound: Nc1nc2c(ncn2[C@@H]2O[C@H](COP(=O)(O)OP(=O)(O)OP(=O)(O)O)[C@@H](O)[C@H]2O)c(=O)[nH]1 [guanosine triphosphate]
Experiment: NP40-soluble protein abundance relative to vehicle (solubility fold change) (ratio); higher = more soluble protein in presence of GTP
How it was run: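 Data come from three independent experiments in which Dounce-homogenised Jurkat crude lysate was treated at eight concentrations from 0.1 to 10 mM. Treatment ran 10 min at room temperature and then 3 min at 37 °C, after which 0.8% NP40 and benzonase were added for 60 min at 4 °C before ultracentrifugation. The supernatant underwent TMT labelling and LC-MS/MS, and vsn-normalised intensities were expressed as fold change against the detergent-processed vehicle in each replicate.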

Amino acid sequences for entries named in this document (tags omitted). A change or cut given only in a name is not applied to a line headed by its entry.
UniProt Q7KZN9: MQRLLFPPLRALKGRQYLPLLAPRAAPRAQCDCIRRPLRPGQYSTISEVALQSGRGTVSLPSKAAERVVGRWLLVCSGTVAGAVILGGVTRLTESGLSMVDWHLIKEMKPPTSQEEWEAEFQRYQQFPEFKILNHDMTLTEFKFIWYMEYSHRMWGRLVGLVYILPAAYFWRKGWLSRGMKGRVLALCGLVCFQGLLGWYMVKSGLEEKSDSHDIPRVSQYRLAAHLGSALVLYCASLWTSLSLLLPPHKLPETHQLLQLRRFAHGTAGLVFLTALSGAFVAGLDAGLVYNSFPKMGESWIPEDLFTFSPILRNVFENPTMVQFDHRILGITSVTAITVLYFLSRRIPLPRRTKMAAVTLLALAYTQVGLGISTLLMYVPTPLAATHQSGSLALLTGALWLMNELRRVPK
UniProt Q6P587: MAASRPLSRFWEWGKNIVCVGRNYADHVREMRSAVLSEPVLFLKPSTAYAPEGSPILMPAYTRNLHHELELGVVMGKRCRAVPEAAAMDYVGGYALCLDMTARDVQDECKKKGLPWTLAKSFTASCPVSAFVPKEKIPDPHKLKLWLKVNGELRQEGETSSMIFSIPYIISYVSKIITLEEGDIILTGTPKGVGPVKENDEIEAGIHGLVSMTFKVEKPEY
UniProt Q86VN1: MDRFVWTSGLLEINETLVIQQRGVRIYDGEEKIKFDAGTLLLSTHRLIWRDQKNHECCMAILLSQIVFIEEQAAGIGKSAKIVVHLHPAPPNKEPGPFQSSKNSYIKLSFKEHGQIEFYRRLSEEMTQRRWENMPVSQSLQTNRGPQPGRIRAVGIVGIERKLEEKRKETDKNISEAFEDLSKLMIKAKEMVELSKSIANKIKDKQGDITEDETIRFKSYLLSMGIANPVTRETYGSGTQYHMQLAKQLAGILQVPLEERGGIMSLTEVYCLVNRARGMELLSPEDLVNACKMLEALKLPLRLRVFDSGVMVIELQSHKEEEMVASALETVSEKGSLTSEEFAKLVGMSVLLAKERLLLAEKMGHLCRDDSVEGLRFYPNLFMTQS
UniProt Q7Z2Z2: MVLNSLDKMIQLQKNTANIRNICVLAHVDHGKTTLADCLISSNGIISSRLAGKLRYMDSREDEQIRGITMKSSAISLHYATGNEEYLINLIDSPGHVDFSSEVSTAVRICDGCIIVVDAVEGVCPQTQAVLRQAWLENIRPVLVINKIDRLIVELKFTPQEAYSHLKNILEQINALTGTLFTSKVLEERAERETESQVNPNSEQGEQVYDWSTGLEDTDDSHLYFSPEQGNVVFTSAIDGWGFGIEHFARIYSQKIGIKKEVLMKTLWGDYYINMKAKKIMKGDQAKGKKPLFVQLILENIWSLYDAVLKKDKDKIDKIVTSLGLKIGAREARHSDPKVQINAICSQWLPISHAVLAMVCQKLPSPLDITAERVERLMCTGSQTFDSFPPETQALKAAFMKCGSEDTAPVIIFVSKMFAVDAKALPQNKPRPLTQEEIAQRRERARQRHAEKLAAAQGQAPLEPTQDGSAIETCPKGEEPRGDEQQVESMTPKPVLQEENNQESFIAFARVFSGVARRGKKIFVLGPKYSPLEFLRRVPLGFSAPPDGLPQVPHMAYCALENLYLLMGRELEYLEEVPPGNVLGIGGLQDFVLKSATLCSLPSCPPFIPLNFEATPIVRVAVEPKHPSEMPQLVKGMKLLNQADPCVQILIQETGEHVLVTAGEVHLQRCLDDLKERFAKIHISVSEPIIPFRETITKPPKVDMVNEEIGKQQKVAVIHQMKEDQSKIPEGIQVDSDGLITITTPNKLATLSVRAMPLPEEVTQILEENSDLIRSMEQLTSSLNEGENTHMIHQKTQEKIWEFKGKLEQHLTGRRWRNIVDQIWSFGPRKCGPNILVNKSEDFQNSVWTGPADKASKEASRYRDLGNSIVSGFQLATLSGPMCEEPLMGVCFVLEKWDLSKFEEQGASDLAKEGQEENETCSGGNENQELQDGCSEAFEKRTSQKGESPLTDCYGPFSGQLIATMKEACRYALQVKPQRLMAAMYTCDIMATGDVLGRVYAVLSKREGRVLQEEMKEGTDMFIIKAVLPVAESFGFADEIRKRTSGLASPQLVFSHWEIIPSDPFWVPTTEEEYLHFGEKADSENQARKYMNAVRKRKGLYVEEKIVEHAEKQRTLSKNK
UniProt Q6SJ93: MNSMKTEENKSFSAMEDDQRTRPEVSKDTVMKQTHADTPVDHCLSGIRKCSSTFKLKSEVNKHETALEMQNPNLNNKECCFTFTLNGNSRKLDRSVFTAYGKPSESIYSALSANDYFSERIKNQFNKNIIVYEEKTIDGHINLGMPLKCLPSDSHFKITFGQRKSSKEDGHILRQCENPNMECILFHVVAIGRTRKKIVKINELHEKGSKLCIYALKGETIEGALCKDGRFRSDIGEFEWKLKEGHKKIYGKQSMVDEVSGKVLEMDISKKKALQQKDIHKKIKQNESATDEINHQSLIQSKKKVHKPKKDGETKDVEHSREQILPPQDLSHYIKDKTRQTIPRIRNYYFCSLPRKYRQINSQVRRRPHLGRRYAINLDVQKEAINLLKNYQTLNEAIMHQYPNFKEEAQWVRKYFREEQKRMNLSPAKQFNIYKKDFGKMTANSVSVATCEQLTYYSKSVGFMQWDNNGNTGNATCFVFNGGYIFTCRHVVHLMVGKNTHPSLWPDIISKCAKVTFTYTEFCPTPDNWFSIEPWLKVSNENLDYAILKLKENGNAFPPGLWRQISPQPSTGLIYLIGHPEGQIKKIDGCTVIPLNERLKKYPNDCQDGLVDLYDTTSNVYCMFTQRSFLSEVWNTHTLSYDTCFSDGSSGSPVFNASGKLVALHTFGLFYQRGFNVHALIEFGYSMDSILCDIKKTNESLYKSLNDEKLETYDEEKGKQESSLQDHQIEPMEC
UniProt Q7L2H7, whole entry: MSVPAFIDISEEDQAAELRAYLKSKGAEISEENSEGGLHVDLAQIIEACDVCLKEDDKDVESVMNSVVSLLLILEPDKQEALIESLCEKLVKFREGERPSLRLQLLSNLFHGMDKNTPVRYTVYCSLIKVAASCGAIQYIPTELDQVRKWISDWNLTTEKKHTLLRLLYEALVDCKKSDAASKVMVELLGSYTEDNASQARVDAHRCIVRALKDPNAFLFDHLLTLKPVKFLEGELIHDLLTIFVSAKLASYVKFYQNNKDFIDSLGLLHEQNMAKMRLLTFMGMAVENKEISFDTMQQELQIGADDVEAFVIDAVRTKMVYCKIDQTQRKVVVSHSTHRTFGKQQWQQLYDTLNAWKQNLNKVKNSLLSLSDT
UniProt Q7L273: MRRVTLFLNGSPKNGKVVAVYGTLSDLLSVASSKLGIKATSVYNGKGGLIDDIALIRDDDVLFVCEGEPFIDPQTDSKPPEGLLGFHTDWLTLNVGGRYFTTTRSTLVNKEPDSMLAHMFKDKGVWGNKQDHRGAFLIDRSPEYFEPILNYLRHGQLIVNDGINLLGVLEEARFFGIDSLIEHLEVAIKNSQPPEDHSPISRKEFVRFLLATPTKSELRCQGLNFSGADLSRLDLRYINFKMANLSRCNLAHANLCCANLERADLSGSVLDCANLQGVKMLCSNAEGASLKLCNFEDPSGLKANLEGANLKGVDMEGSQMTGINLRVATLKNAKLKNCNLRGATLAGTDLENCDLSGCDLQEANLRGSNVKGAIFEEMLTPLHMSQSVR
UniProt Q6W2J9: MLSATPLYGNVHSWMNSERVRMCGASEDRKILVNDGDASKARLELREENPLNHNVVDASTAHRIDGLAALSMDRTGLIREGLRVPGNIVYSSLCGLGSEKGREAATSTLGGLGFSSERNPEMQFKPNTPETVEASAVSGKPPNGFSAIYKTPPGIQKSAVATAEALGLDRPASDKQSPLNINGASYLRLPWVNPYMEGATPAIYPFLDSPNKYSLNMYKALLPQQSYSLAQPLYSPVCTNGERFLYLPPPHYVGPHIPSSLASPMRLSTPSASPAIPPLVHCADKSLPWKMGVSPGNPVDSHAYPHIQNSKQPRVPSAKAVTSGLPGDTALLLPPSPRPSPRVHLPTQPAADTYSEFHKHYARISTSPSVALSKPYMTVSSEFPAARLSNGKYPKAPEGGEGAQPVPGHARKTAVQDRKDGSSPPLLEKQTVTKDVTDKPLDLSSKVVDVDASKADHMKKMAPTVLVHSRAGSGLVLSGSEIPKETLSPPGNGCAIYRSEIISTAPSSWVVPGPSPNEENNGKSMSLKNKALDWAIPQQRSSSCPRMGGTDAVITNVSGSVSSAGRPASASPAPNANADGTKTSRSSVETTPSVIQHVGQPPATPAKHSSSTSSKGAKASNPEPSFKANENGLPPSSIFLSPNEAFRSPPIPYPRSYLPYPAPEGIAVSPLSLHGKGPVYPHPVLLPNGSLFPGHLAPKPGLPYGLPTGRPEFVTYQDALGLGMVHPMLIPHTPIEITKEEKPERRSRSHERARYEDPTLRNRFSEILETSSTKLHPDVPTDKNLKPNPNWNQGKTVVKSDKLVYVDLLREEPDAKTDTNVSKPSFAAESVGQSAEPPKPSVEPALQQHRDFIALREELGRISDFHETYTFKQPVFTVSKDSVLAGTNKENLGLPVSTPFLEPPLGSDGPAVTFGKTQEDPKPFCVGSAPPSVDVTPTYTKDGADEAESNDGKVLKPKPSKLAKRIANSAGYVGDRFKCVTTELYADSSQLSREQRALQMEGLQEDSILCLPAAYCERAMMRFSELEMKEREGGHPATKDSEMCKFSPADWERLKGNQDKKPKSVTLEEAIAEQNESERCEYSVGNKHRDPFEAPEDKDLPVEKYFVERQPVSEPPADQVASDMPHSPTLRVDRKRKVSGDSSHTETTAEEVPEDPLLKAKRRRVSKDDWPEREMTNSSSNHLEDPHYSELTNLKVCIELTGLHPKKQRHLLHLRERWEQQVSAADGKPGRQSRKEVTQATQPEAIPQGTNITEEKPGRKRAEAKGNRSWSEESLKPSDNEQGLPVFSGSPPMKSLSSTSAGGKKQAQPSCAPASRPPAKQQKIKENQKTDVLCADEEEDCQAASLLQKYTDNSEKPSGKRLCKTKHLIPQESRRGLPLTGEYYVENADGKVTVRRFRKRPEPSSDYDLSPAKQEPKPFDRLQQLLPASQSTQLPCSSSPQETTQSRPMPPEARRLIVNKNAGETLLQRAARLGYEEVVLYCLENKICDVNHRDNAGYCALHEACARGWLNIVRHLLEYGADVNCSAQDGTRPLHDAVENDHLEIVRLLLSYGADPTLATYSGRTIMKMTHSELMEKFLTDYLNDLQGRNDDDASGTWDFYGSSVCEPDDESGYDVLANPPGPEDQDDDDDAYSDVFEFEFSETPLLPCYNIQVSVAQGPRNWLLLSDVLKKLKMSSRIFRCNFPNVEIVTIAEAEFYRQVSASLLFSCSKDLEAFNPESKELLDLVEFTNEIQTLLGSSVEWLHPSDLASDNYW
UniProt Q7Z5L9: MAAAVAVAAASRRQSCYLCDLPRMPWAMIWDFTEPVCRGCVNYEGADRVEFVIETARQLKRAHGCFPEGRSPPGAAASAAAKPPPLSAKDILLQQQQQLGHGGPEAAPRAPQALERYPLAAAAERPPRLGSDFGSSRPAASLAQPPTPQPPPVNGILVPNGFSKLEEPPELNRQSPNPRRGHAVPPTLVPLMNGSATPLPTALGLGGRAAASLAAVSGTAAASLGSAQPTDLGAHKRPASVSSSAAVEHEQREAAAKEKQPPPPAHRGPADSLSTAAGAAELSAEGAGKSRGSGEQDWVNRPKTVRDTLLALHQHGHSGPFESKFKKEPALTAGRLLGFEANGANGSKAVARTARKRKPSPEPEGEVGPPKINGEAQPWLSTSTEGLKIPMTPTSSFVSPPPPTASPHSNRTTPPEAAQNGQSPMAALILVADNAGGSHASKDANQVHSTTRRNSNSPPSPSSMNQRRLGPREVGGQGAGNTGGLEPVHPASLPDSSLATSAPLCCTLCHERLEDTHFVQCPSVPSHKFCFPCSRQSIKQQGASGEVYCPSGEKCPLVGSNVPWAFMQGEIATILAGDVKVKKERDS
UniProt Q7Z434: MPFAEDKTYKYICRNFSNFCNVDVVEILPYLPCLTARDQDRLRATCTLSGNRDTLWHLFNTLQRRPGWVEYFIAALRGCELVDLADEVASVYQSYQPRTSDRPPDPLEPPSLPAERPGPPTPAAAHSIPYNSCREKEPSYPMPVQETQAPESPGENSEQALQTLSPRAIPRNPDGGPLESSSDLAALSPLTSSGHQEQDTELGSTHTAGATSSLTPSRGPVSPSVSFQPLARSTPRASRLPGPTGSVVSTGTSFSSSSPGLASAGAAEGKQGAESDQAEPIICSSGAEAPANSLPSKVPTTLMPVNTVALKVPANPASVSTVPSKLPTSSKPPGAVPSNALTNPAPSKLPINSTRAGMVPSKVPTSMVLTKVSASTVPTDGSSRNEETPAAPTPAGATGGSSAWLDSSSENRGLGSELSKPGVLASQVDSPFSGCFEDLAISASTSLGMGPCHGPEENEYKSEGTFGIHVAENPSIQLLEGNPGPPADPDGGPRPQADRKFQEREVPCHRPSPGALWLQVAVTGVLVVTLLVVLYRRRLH

Target	NP40-soluble protein abundance (concentration: 0.1mM)	NP40-soluble protein abundance (concentration: 0.5mM)	NP40-soluble protein abundance (concentration: 1mM)	NP40-soluble protein abundance (concentration: 2mM)	NP40-soluble protein abundance (concentration: 4mM)	NP40-soluble protein abundance (concentration: 6mM)	NP40-soluble protein abundance (concentration: 8mM)	NP40-soluble protein abundance (concentration: 10mM)
UniProt Q7KZN9 and related entries	1.07 ± 0.024	1.05 ± 0.11	0.98 ± 0.035	0.961 ± 0.022	0.939 ± 0.052	0.924 ± 0.037	0.907 ± 0.029	0.931 ± 0.042
UniProt Q6P587 and related entries	0.936 ± 0.056	0.933 ± 0.022	0.915 ± 0.023	0.796 ± 0.01	0.865 ± 0.071	0.858 ± 0.092	0.829 ± 0.026	0.843 ± 0.083
UniProt Q86VN1 and related entries	0.996 ± 0.039	1.02 ± 0.05	0.96 ± 0.06	0.941 ± 0.047	0.915 ± 0.068	0.946 ± 0.045	0.937 ± 0.034	0.952 ± 0.034
UniProt Q7Z2Z2	1.02 ± 0.041	1.01 ± 0.015	0.955 ± 0.037	0.944 ± 0.044	0.93 ± 0.052	0.944 ± 0.035	0.91 ± 0.037	0.91 ± 0.044
FBXO42 (UniProt Q6P3S6)	1.23 ± 0.23	1.08 ± 0.082	1.06 ± 0.082	1.12 ± 0.2	1.05 ± 0.075	1.06 ± 0.11	0.992 ± 0.12	1.04 ± 0.12
UniProt Q6SJ93 and related entries	1.06 ± 0.15	1.08 ± 0.095	0.936 ± 0.037	0.971 ± 0.07	1.01 ± 0.049	0.969 ± 0.1	0.969 ± 0.15	0.88 ± 0.024
UniProt Q7L2H7	1.02 ± 0.077	1.02 ± 0.11	0.977 ± 0.096	1.07 ± 0.16	1.14 ± 0.23	1.15 ± 0.21	1.17 ± 0.13	1.32 ± 0.24
ZCCHC8 (UniProt Q6NZY4)	1 ± 0.031	1.03 ± 0.026	1.12 ± 0.072	1.15 ± 0.092	1.21 ± 0.13	1.25 ± 0.15	1.31 ± 0.23	1.32 ± 0.27
UniProt Q86T03-2	1.09 ± 0.12	1.08 ± 0.12	1.06 ± 0.12	1.18 ± 0.16	1.19 ± 0.21	1.16 ± 0.23	1.2 ± 0.2	1.21 ± 0.19
KCTD9 (UniProt Q7L273)	0.98 ± 0.1	1.1 ± 0.12	0.962 ± 0.059	0.997 ± 0.031	0.974 ± 0.099	1 ± 0.082	1.02 ± 0.11	1.01 ± 0.052
UniProt Q6VY07 and related entries	0.987 ± 0.013	1.03 ± 0.022	0.953 ± 0.03	0.962 ± 0.019	0.961 ± 0.03	0.948 ± 0.0098	0.944 ± 0.018	0.941 ± 0.03
UniProt Q6W2J9 and related entries	1.02 ± 0.11	1.03 ± 0.085	1.049 ± 0.0058	1.08 ± 0.034	1.14 ± 0.074	1.154 ± 0.008	1.17 ± 0.024	1.12 ± 0.03
IRF2BP2 (UniProt Q7Z5L9)	0.949 ± 0.018	0.934 ± 0.05	0.997 ± 0.0063	0.99 ± 0.035	0.981 ± 0.034	0.96 ± 0.062	0.999 ± 0.049	1.02 ± 0.025
UniProt Q7Z434 and related entries	0.916 ± 0.047	0.936 ± 0.076	0.959 ± 0.058	0.902 ± 0.093	0.909 ± 0.12	0.897 ± 0.1	0.914 ± 0.082	0.905 ± 0.12
MRPL14 (UniProt Q6P1L8)	0.994 ± 0.31	1.04 ± 0.29	1.36 ± 0.3	1.32 ± 0.22	1.43 ± 0.3	1.35 ± 0.36	1.29 ± 0.36	1.25 ± 0.29
